Test results published in the supplement of paper PMC7858590.
± gives the standard deviation of the averaged measurements. Over roughly 3,800 compounds, “cell shape (eccentricity) Z-score vs DMSO control” has its median near 1.1; the lowest 2% begin near -4.7. The list shows a part of the results.

System: human monocyte-derived macrophages (M0)
Experiment: cell shape (eccentricity) Z-score vs DMSO control; higher = more elongated, M2-like morphology
Details: 20 µM; 24 h; macrophage state: M0 (M-CSF)

| Structure (SMILES) | cell shape (Z-score) |
| --- | --- |
| C/C=C(/C)C(=O)OC1CCN2CC=C(COC(=O)C(O)(C(C)O)C(C)(C)O)C12 (configuration not stated) | 0.798 |
| C[C@]12CC[C@H](O)C[C@H]1CC[C@@H]1[C@@H]2CC[C@]2(C)[C@@H](c3ccc(=O)oc3)C[C@H]3OC132 (some centres not stated) | -1.84 |
| C=C(C)C1Cc2c(ccc3c(=O)c4c(oc23)COc2cc(OC)c(OC)cc2-4)O1 (configuration not stated) | 1.42 |
| C[C@]12CCC(=O)C=C1C=CC1C2CC[C@@]2(C)C1CC[C@@]2(O)CCC(=O)O (some centres not stated) | 3.47 |
| O=C1N[C@@H]2C(=C[C@H](O)[C@@H](O)[C@H]2O)c2cc3c(c(O)c21)OCO3 | -0.517 |
| Cc1[nH]c2ccc(O)cc2c1CCN | 3.19 |
| N#Cc1nn(-c2c(Cl)cc(C(F)(F)F)cc2Cl)c(N)c1S(=O)C(F)(F)F (configuration not stated) | -0.378 |
| O=C1CC=C2C3CC4N(CCC45c4ccccc4N1C25)C/C3=C/CO (configuration not stated) | 0.376 |
| CC[C@@H](C(=O)[C@@H](C)[C@@H](O)[C@H](C)[C@@H]1O[C@@H]([C@@H](CC)C(=O)O)CC[C@@H]1C)[C@H]1O[C@]2(C=C[C@@H](O)[C@]3(CC[C@@](C)(C4CC[C@](O)(CC)[C@H](C)O4)O3)O2)[C@H](C)C[C@@H]1C (some centres not stated) | -1.21 |
| CC(C(=O)OC1CC2CCC(C1)N2C)c1ccc(Br)cc1 (configuration not stated) | 3.63 |
| N#Cc1ccc(N2CCN(C(=O)COc3ccc4[nH]cc(CCN)c4c3)CC2)cc1 | -2.51 |
| c1ccc(CC(c2ccccc2)N2CCCCC2)cc1 (configuration not stated) | 2.82 |
| COC1CC(OC2CCC3(C)C(CCC4(O)C3CC(OC(=O)c3ccccc3)C3(C)C(O)(C(C)=O)CCC43O)C2)OC(C)C1OC1CC(OC)C(OC2OC(C)C(O)C(OC)C2O)C(C)O1 (configuration not stated) | -0.302 ± 2.2 |
| CC1=NN=C(c2ccc(N)cc2)c2cc3c(cc2C1)OCO3 | 2.11 |
| NCCc1cccc(O)c1 | -0.332 |
| O=c1cccc2n1C[C@H]1CNCC2C1 | -1.35 |
| CC(=O)O[C@@H](c1nc2ccccc2c(=O)n1[C@@H]1C[C@@]2(OC1=O)c1ccccc1N1C(=O)[C@H](C)N(O)[C@@H]12)C(C)C | 2.14 |
| CC1(C)C2CC(=O)[C@]3(C)C(CC[C@@]4(C)[C@H](c5ccoc5)OC(=O)[C@H]5O[C@]543)[C@@]2(C)C(=O)C[C@H]1O (some centres not stated) | 2.13 |
| CC(N)Cc1c[nH]c2ccc(OCc3cccs3)cc12 (configuration not stated) | 0.161 |

| Structure (SMILES) | cell shape (Z-score) |
| --- | --- |
| C[C@H]1OC(O[C@H]2[C@@H](O)CC(O[C@H]3[C@@H](O)C[C@H](O[C@H]4CC[C@]5(C)C6CC[C@]7(C)[C@@H](C8=CC(=O)OC8)[C@@H](O)C[C@]7(O)[C@@H]6CC[C@@H]5C4)O[C@@H]3C)O[C@@H]2C)C[C@H](O)C1O (some centres not stated) | 1.14 |
| COC[C@@]1(CO)C(=O)[C@H]2CC[N@@]1CC2 | 1.98 |
| CCCCc1ccc(C(=O)O)nc1 | -2.2 |
| c1ccc2sc(C3(N4CCCCC4)CCCCC3)cc2c1 | 0.124 |
| CC(C)=CC1C(C(=O)OCc2cccc(Oc3ccccc3)c2)C1(C)C (configuration not stated) | 3.73 |
| C[C@]12CC[C@H](O)C[C@H]1CC[C@@H]1[C@@H]2CC[C@]2(C)[C@@H](c3ccc(=O)oc3)CC[C@]12O | 0.742 |
| COc1ccc(C(CN(C)C)C2(O)CCCCC2)cc1 (configuration not stated) | 2.9 |
| Cc1cccc(C(C)c2cnc[nH]2)c1C (configuration not stated) | 2.03 |
| COc1ccc2c3c([nH]c2c1)[C@H](CC(C)C)N1C(=O)[C@H](CCC(=O)OC(C)(C)C)NC(=O)[C@@H]1C3 | 9.45 |
| CN1CCN(C(=O)OC2c3nccnc3C(=O)N2c2ccc(Cl)cn2)CC1 (configuration not stated) | 0.709 |
| CCC(C)/C=C(C)/C=C/C1=CC2=C(Cl)C(=O)C(C)(OC(C)=O)C(=O)C2=CO1 (configuration not stated) | 1.12 |
| COc1ccc2[nH]cc(CCNCc3ccc(Br)cc3)c2c1 | 2.35 |
| C[C@]12CC[C@H]3[C@@H](CCC4=CC(=O)CC[C@@]43C)[C@@H]1CC[C@H]2O | 0.493 |
| CC(=O)OC1CN2CCC1CC2 (configuration not stated) | 1.37 |
| CC(CCc1ccccc1)NC(C)C(O)c1ccc(O)cc1 (configuration not stated) | 1.98 |
| C[C@]12CCC(=O)C=C1CCC1C2CC[C@@]2(C)C1CC[C@@H]2O (some centres not stated) | 1.06 |
| O=C1NC(=O)c2c1c1c3ccccc3[nH]c1c1[nH]c3ccccc3c21 | 15.5 |
| CCC1/C=C/C=C/C[C@H](C)[C@@H](O)[C@](C)(O)C(=O)[C@@H](C)[C@H](O)[C@@H](C)C(=O)[C@H](C)[C@@H](O)[C@H](C)/C=C/C(=O)OC2[C@@H](C)C(CC1)OC1(CC[C@@H](C)C(C[C@H](C)O)O1)[C@@H]2C (some centres not stated) | 7.16 |
| C[C@@H]([C@H](O)c1ccccc1)N(C)C | -2.36 |

| Structure (SMILES) | cell shape (Z-score) |
| --- | --- |
| CCCCC(CC)COC(=O)c1ccccc1C(=O)OCC(CC)CCCC (configuration not stated) | 0.876 ± 0.39 |
| COc1ccc2c(c1)[nH]c1c(C)nccc12 | -5.5 |
| CC1CC(C)C(=O)C(C(O)CC2CC(=O)NC(=O)C2)C1 (configuration not stated) | 1.3 |
| CC[C@@]1(O)C(=O)OCc2c1cc1n(c2=O)Cc2cc3ccccc3nc2-1 | 1.59 |
| O=C1Nc2ccccc2C2(CCN(CCc3ccc(C(F)(F)F)cc3)CC2)O1 | -0.107 |
| C#CC1(O)CCC2C3CCC4=CC(=O)CCC4(C)C3CCC21C (configuration not stated) | 0.708 |
| O=P1(NCCCl)OCCCN1CCCl (configuration not stated) | 2.31 |
| O=C1CC[C@@]2(O)[C@H]3Cc4ccc(O)c5c4C2(CCN3CC2CC2)[C@H]1O5 | 0.776 |
| CN1CCC(c2c[nH]c3ccc(O)cc23)CC1 | 1.42 |
| Cc1sc2c(c1C)C(c1ccc(Cl)cc1)=N[C@@H](CC(=O)OC(C)(C)C)c1nnc(C)n1-2 | 7.09 |
| COc1ccc2[nH]cc(CCN)c2c1 | 3.56 |
| CN1C[C@H](C(=O)N[C@]2(C)O[C@@]3(O)[C@@H]4CCCN4C(=O)[C@H](Cc4ccccc4)N3C2=O)C[C@@H]2c3cccc4[nH]cc(c34)C[C@H]21 | 3.57 |
| c1ccc(C2(c3ccccc3)CC2C2=NCCN2)cc1 (configuration not stated) | -0.00518 |
| COC1=CC(=O)O[C@@H](CCc2ccccc2)C1 | 1.68 |
| CC(C)NCC(O)c1ccc(N)c(C#N)c1 (configuration not stated) | -0.285 |
| C[C@H]1C[C@@H](O)[C@]2(O)[C@@]13CC(=O)OC[C@@]2(C)[C@](C)(O)C(=O)C3 | 1.22 |
| NC(=O)c1cc([N+](=O)[O-])cc([N+](=O)[O-])c1 | 1.58 |
| CC(C)CC1C(=O)N2CCCC2C2(O)OC(NC(=O)C3C=C4c5cccc6[nH]c(Br)c(c56)CC4N(C)C3)(C(C)C)C(=O)N12 (configuration not stated) | 4.45 |
| CC(=O)O[C@@H]1CC2C(C)(C)C(=O)C=C[C@]2(C)C2CC[C@]3(C)C(=CC(=O)O[C@H]3c3ccoc3)[C@@]21C (some centres not stated) | -6.06 |

Copied from the list:
For cell shape (Z-score), `C#CC1(O)CCC2C3CCC4=CC(=O)CCC4(C)C3CCC21C` (configuration not stated) shows 0.708
For cell shape (Z-score), `CC(=O)O[C@@H]1CC2C(C)(C)C(=O)C=C[C@]2(C)C2CC[C@]3(C)C(=CC(=O)O[C@H]3c3ccoc3)[C@@]21C` (some centres not stated) shows -6.06
